In patent publication US20100150948A1, “MATERIALS AND METHODS FOR IMPROVED IMMUNOGLYCOPROTEINS” (TRUBION PHARMACEUTICALS, INC., priority 2006, published 2010):

System: CHO cells transfected with TRU-016
Assay: Effect of castanospermine concentration on cell viability, density and specific protein production of TRU-016
Type: cell-based, Chinese hamster
Details: harvest day 8
Description: Prior to initiation of the experiments, CHO cells transfected with TRU-016 were grown in shake flasks in Ex-Cell™ 302 CHO serum-free media (SAFC Biosciences) supplemented with 1× non-essential amino acids (MediaTech), 1× sodium pyruvate (MediaTech), 4 mM L-glutamine (MediaTech), 500 nM methotrexate (MP Biomedicals) and 1 mg/L recombinant insulin (Recombulin—GIBCO/Invitrogen Corp.) at 37° C. and 5% carbon dioxide in a humidified incubator. A 200 mM stock concentration of castanospermine (Alexis Biochemicals) was prepared by dilution of the castanospermine in sterile, distilled/deionized water (MediaTech) and filtration through a 13 mm Acrodisc® with a 0.2 μm HT Tuffryn membrane (Pall Corporation). Stock solution was aliquoted into sterile, O-ringed, 0.5 mL microcentrifuge tubes (Fisherbrand, Fisher Scientific) and frozen at −20° C. Approximately 1 hour prior to initiation of experiments, needed aliquots were thawed at room temperature and the contents of each vial mixed well by vortexing.
For each experiment, cells in log phase growth were seeded in the above medium into a total volume of 60 mL in 250 mL shaker flasks at a density of 200,000 cells/mL and CS added at the concentration to be tested. Final CS concentrations of 800 μM, 400 μM, 200 μM, 100 μM, 50 μM, 25 μM and 0 μM were each tested in duplicate flasks. All cultures were incubated at 37° C. and 5% carbon dioxide in a humidified incubator and monitored at least every other day for viable cell density and overall cell viability.
Cultures were harvested on day 8 when overall cell viability was 50-70% (Expt. 1) and 30-50% (Expt. 2). Cells and cellular debris were removed by centrifugation in a Sorvall Super T21 at 3000 rpm for 20 minutes after which the supernatant was sterile filtered through a Millipore Steriflip unit with a 0.22 μm Millipore Express Plus membrane and stored at 2-8° C. until purification.

O[C@H]1[C@H](O)[C@@H](O)CN2CC[C@H](O)[C@H]12 [castanospermine]
Average TRU-016 Produced (ug/mL) ± SD (CS 25 μM): 180.31 ± 6.6 µg/mL | Average TRU-016 Produced (ug/mL) ± SD (CS 50 μM): 176.63 ± 1.0 µg/mL | Average TRU-016 Produced (ug/mL) ± SD (CS 100 μM): 161.83 ± 0.1 µg/mL | Average TRU-016 Produced (ug/mL) ± SD (CS 200 μM): 143.53 ± 1.4 µg/mL | Average TRU-016 Produced (ug/mL) ± SD (CS 400 μM): 124.93 ± 1.4 µg/mL | Average TRU-016 Produced (ug/mL) ± SD (CS 800 μM): 99.65 ± 6.1 µg/mL
